Record: PubChem BioAssay AID504791 (Drosophila RNAi Screening Center, 2011)

Assay: 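Genes whose knock-down strengthens or weakens small-RNA reporter silencing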 (primary screen)
Cells: Drosophila S2-derived reporter cells
Reagents: long dsRNA against Drosophila genes, about 150-250 ng dsRNA per well (siRNA assay); about 80-120 ng (miRNA assay)
Duration: about 5 days (siRNA assay); about 4 days (miRNA assay)
Treatment: copper sulfate induction of reporters: 25 µM (siRNA assay); 200 mM stated (miRNA assay), 1-2 days before reading
Measured: 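Per-well ratio of Renilla over firefly light, expressed relative to that plate's average ratio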
Units: stable assay Renilla, run 1 in luminescence; stable assay firefly, run 1 in luminescence
Rule for the call: 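a well was a first-pass pick when its plate-scaled ratio rose above 1.5 (siRNA assay) or 1.6 (miRNA assay), or dropped below 0.6; a gene counted only if two separate dsRNAs agreed on retest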
In all, the deposit lists about 23,000 reagents; this is a random part of those with a known target gene and a result. Of all reagents, 199 (0.86%) were called active. 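Plate-scaled ratios behind the calls are not deposited; printed light signals are raw; many rows marked increased or decreased are still called inactive.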 Unmarked entries are inactive. The record does not give: the direction of the score.

The opening 2 entries as a preview:
Cyp6a17 [DRSC07378]
- stable assay Renilla, run 1: 7710
- stable assay firefly, run 1: 4.90e5

CG31804 [DRSC22728]
- stable assay Renilla, run 1: 5935
- stable assay firefly, run 1: 5.18e5

The listing, from the start:
Cyp6a17 [DRSC07378]
- stable assay Renilla, run 1: 7710
- stable assay firefly, run 1: 4.90e5

CG31804 [DRSC22728]
- stable assay Renilla, run 1: 5935
- stable assay firefly, run 1: 5.18e5

kermit [DRSC06074]
- stable assay Renilla, run 1: 10102
- stable assay firefly, run 1: 5.92e5

Rpt6 [DRSC20571]
- stable assay Renilla, run 1: 6851
- stable assay firefly, run 1: 4.15e5

CG18568 [DRSC06768]
- miRNA reporter change: reporter ratio raised past the hit cutoff
- stable assay Renilla, run 1: 10247
- stable assay firefly, run 1: 5.24e5

CG18568 [DRSC24546]
- miRNA reporter change: reporter ratio raised past the hit cutoff

CG14118 [DRSC10122]
- stable assay Renilla, run 1: 6027
- stable assay firefly, run 1: 3.61e5

nord [DRSC04210]
- stable assay Renilla, run 1: 5531
- stable assay firefly, run 1: 2.95e5

nord [DRSC04361]
- stable assay Renilla, run 1: 6226
- stable assay firefly, run 1: 4.14e5

CG18249 [DRSC15318]
- stable assay Renilla, run 1: 8531
- stable assay firefly, run 1: 5.06e5

CG4020 [DRSC18337]
- stable assay Renilla, run 1: 6143
- stable assay firefly, run 1: 3.23e5

eater [DRSC15969]
- stable assay Renilla, run 1: 3436
- stable assay firefly, run 1: 3.18e5

eater [DRSC22254]
- stable assay Renilla, run 1: 10082
- stable assay firefly, run 1: 8.51e5

CG15773 [DRSC18079]
- stable assay Renilla, run 1: 6514
- stable assay firefly, run 1: 2.95e5

CG6678 [DRSC16092]
- stable assay Renilla, run 1: 10098
- stable assay firefly, run 1: 4.29e5

CG14864 [DRSC14987]
- stable assay Renilla, run 1: 7830
- stable assay firefly, run 1: 5.70e5

CG5577 [DRSC10519]
- stable assay Renilla, run 1: 8424
- stable assay firefly, run 1: 3.07e5

CG8087 [DRSC16375]
- stable assay Renilla, run 1: 6950
- stable assay firefly, run 1: 4.99e5

CG15036 [DRSC17968]
- stable assay Renilla, run 1: 4175
- stable assay firefly, run 1: 2.14e5
